Binding signal data for 42 sequences are collected here from article PMC7819943, “Rice protein-binding microarrays: a tool to detect cis-acting elements near promoter regions in rice”.

Sequences of proteins named here, by UniProt entry; tags and fusion partners are left off.
UniProt Q0JBA9, entry or part of it: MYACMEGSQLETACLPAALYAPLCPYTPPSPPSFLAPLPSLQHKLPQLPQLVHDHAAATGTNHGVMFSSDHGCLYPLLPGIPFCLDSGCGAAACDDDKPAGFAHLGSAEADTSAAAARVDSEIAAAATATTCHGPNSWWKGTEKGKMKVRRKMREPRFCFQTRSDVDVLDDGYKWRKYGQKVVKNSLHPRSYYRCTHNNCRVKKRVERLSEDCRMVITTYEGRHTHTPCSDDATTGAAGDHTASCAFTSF

Some of the results follow.

This assay has as its target OsWRKY34 (Oryza sativa, UniProt Q0JBA9 1-250). Description: protein-binding microarray (RPBM); PBS, 2% BSA, 51.3 ng/ul salmon testes DNA, 50 uM zinc acetate, 200 nM TF, 25 C, 1 h; high values mean tight binding. The following applies: protein: recombinant; tags: N-terminal polyhistidine and DsRed monomer fusion (pET32a); label: CyDye5-dUTP incorporated in the synthesized complementary strand; 3' TTTTT single-stranded linker to array surface; dsDNA, one strand shown. In a few lines: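 Transcription factors, each fused N-terminally to a polyhistidine tag and DsRed, were expressed in E. coli BL21-CodonPlus and purified on Ni–NTA. A custom Agilent array was made double-stranded by primer extension with Cy5-dUTP and blocked with 2% BSA. It was incubated with 200 nM protein in PBS, 2% BSA, salmon testes DNA and 50 µM zinc acetate at 25 °C for 1 h, then washed. The binding signal is per-feature fluorescence intensity (arbitrary units) read on an Axon 4000B scanner.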
Take “GTACTGGCTTGGCTGGGTCGGGCTCGGGCTGGGCCATGAACGGAGTCACCTAGTGCAG”: the binding signal was 8340 fluorescence intensity (a.u.).

As to “ACTACTCATAGCCAGTACTGTTATTACTGTACATGTATAACGGAGTCACCTAGTGCAG”, the binding signal is 8390 fluorescence intensity (a.u.).

“CATACACCTTCCGTCCTAAATTATACGGCGCCTATTTTTTCGGAGTCACCTAGTGCAG”: the binding signal was 8650 fluorescence intensity (a.u.).

On to “GAGGAGAGAGAGAGAGAGTGGTGGTGGTGGTGGTGAGATGCGGAGTCACCTAGTGCAG”, for which the binding signal was 8460 fluorescence intensity (a.u.).

“TACTCACGCACGAATTCCTAGGCCATATACTAGTACACATCGGAGTCACCTAGTGCAG”: the binding signal is 10900 fluorescence intensity (a.u.).

Turning to “GGATGGGTGAGGGGATCGGCGAAGGCGGCGGGGTGGCGAACGGAGTCACCTAGTGCAG”, the binding signal is 12400 fluorescence intensity (a.u.).

Consider “ATGGATGTGGAGACTTGGGTCATATGTTTCTTTTCTATTTCGGAGTCACCTAGTGCAG”, for which the binding signal was 8730 fluorescence intensity (a.u.).

Take “CCTTCCCTTTCTTTATTCTGAAGCTTTTATCTTCTTCTCACGGAGTCACCTAGTGCAG”: the binding signal is 9700 fluorescence intensity (a.u.).

With “TCCTTTCACGTCTAGCTCTCAACCTGCAGGATGTAACGACCGGAGTCACCTAGTGCAG”, the binding signal is 8800 fluorescence intensity (a.u.).

For “TGTTGCCGCAGACCTTGACGCCCTCGTCGGCGGCGCGGACCGGAGTCACCTAGTGCAG”, the binding signal was 8350 fluorescence intensity (a.u.).

For “TTACACGCCTAATCATCGAAAACCTAATCTTATGCTTTCTCGGAGTCACCTAGTGCAG”, the binding signal is 8790 fluorescence intensity (a.u.).

Take “CTCTGCTACCTTTCGGCAACCTCCACCATTAAGGCCATCGCGGAGTCACCTAGTGCAG”: the binding signal is 9280 fluorescence intensity (a.u.).

For the sequence “TACCAGCAGATTATTACGGACGCATTTTTCTAACCGTTGACGGAGTCACCTAGTGCAG”, the binding signal is 10200 fluorescence intensity (a.u.).

“CACGCCACGCCACGCCTCACCTCACCACCACCAGGCACCACGGAGTCACCTAGTGCAG”: the binding signal was 8860 fluorescence intensity (a.u.).

Regarding “TAAACCCTTCTCACAAAACTACCGCTCAACGTCATCAACACGGAGTCACCTAGTGCAG”, the binding signal was 10300 fluorescence intensity (a.u.).

In the case of “TCAGCTCTGTTTCTCTTCGTCCCCAACTCCGATCTCGTCTCGGAGTCACCTAGTGCAG”, the binding signal was 10400 fluorescence intensity (a.u.).

Take “CAATTCCCAGCTGCTTTCGCAACCTCTCGCGATCTGCCTCCGGAGTCACCTAGTGCAG”: the binding signal was 10000 fluorescence intensity (a.u.).

Turning to “CTATTTTGGCCACTCGGGAGATGGTGTTGTTTCTGAATTTCGGAGTCACCTAGTGCAG”, the binding signal was 8180 fluorescence intensity (a.u.).

Consider “TTCACCTTCTATGCCTTCTGTGAAAATTAACTGGCTCTCACGGAGTCACCTAGTGCAG”, for which the binding signal was 8250 fluorescence intensity (a.u.).

As to “GTTACTCCTTTGCCATCTCCATCTCCTGCCTACATGAACTCGGAGTCACCTAGTGCAG”, the binding signal was 8030 fluorescence intensity (a.u.).

Regarding “CATCTTCCATCGTCACTCACCGACACCATCCGTAGGTCTTCGGAGTCACCTAGTGCAG”, the binding signal was 9800 fluorescence intensity (a.u.).

As to “GCTACCTATTTTTACATTCAGGTTAGGGGACCTTGCAGGGCGGAGTCACCTAGTGCAG”, the binding signal was 8810 fluorescence intensity (a.u.).

For “TTCTTCTTCTTCTTCTCCACCTGCGATTGATTCGGCCTCTCGGAGTCACCTAGTGCAG”, the binding signal was 9300 fluorescence intensity (a.u.).

Turning to “TTTCCTCATTTATTCACCTGTCACACCATCTTTCATCATACGGAGTCACCTAGTGCAG”, the binding signal is 9590 fluorescence intensity (a.u.).

As to “CAGCTAGGTTTCCGCCTCTCTCACCATCTCCATCTCCATGCGGAGTCACCTAGTGCAG”, the binding signal was 8720 fluorescence intensity (a.u.).

Take “ATAGTTTACACCGGTTTTGATTGTTAGAGGAGTTGATATACGGAGTCACCTAGTGCAG”: the binding signal is 10500 fluorescence intensity (a.u.).

With “CTTCCCATGGCTTTTACTCTCCACTCGAAATCTCGTAACACGGAGTCACCTAGTGCAG”, the binding signal is 11100 fluorescence intensity (a.u.).

On to “GTTCCTTATCCGCATCATCCCCACCGCCGGCCACACACCTCGGAGTCACCTAGTGCAG”, for which the binding signal was 11900 fluorescence intensity (a.u.).

For the sequence “AAGTGCAGTGCCCTATATGCTTAGGTAGGAATTTGCTTTCCGGAGTCACCTAGTGCAG”, the binding signal was 8480 fluorescence intensity (a.u.).

For “ACGTCGCCCGTCTCCAGCCGCCTCATGAGCTCCGCCACCGCGGAGTCACCTAGTGCAG”, the binding signal was 9870 fluorescence intensity (a.u.).

For “TTTTAGATTTGACGTTTAGCCGTTTACCACTCATATATCACGGAGTCACCTAGTGCAG”, the binding signal is 9680 fluorescence intensity (a.u.).

Consider “GCACCTTCCCCGCCACGTGTTCCGCCACCGCTCTCAACTCCGGAGTCACCTAGTGCAG”, for which the binding signal is 8740 fluorescence intensity (a.u.).

For “TGACTTCTTCTTTCTCAATTCCCGCCACCCCGGCACGCCCCGGAGTCACCTAGTGCAG”, the binding signal is 10000 fluorescence intensity (a.u.).

With “ATCGTCTTCAACTGCGCGTCTACGCCATCAAGCTTCGGGTCGGAGTCACCTAGTGCAG”, the binding signal was 9420 fluorescence intensity (a.u.).

Take “AAATCCTACGTTTTTCCTATTCCTACGTTTTCTCAATCCTCGGAGTCACCTAGTGCAG”: the binding signal was 8530 fluorescence intensity (a.u.).

With “GAACATTTGAGTCATCTACTATCTTGCAATATCACTCTTCCGGAGTCACCTAGTGCAG”, the binding signal is 9980 fluorescence intensity (a.u.).

In the case of “TCCAATTTCCTAACACATCCTTCGATTGGAACATTTTTATCGGAGTCACCTAGTGCAG”, the binding signal is 9220 fluorescence intensity (a.u.).

Turning to “TCACCCATGTTTCTGCCTACACATCTCTCTTCCACCTAGTCGGAGTCACCTAGTGCAG”, the binding signal was 10500 fluorescence intensity (a.u.).

As to “ATTTCTTTTGGGGTTCTATTCCGCCTTATATCGGGCACATCGGAGTCACCTAGTGCAG”, the binding signal is 11200 fluorescence intensity (a.u.).

As for “TTCTCCACCGCCGCCACCACCACCTCGCCTGGCCGGCCTCCGGAGTCACCTAGTGCAG”, the binding signal was 18000 fluorescence intensity (a.u.).

With “GGTGGTTGGTGGTAGGGTTTTAGCGCGGCAGGCGGAGATGCGGAGTCACCTAGTGCAG”, the binding signal was 10500 fluorescence intensity (a.u.).

On to “ATCATTTAATTCCTGCGTTTTTCCTGCGATTCAATCAAACCGGAGTCACCTAGTGCAG”, for which the binding signal is 11300 fluorescence intensity (a.u.).
